In PubChem BioAssay AID485314 (National Center for Advancing Translational Sciences (NCATS), 2010):
Screen size: about 340,000 compounds; about 4,500 (1.3%) were called active. Inconclusive means that the source gave no clear call. Such entries were picked first, then a sample of the others. Calls come from the whole dose curve; as a rule, active = well fitted inhibition curve with a large enough effect; inconclusive = small, poorly fitted or top-dose-only effect, or another doubt; inactive = no such curve, though single readings can be large or run the other way. Where the call is inconclusive, the potency comes from a doubtful curve fit.

Target: DNA polymerase beta (Homo sapiens) (UniProt P06746)
Assay: qHTS Assay for Inhibitors of DNA Polymerase Beta
Conditions: Pol beta primer extension/strand displacement, fluorescence kinetic; activity change, negative = inhibition: at 114 µM (top of the series)
In short: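 Reaction started by 50 nM substrate onto compound-treated Pol beta (10 nM, 15 min preincubation, room temperature); plates read at 0 min and 10 min. Normalized concentration-effect data fitted by four-parameter Hill equation.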
% is set by controls: 0 for no effect and ±100 for the full control effect; potency is the fitted concentration of half-maximal effect.

Structure (SMILES)	Potency	activity change, negative = inhibition
COc1cc2c(cc1OC)C(C)N(C(=O)Nc1ccccc1)CC2 (configuration not stated)	inconclusive: 2.24 µM [inhibitor, full curve]	
O=C(O)c1ccc([N+](=O)[O-])c(CS(=O)(=O)c2ccc(Cl)cc2)c1	inconclusive: 35.5 µM [inhibitor, single point]	
Cc1cccc(Cn2cnc3c(cnn3-c3ccc(Cl)cc3)c2=O)c1	inactive	
CCn1c(=O)cc(OCC(=O)N2CCN(c3ccccc3OC)CC2)c2ccccc21	inactive	
CC(C)CCNC(=O)C1(O)c2ccccc2NC(=O)N1c1ccc(Cl)cc1 (configuration not stated)	inconclusive: 39.8 µM [inhibitor, single point]	
Cn1c(CNC(=O)CSc2nc(-c3cccc(Cl)c3)nc3cc(=O)[nH]n23)nc2ccccc21	inconclusive: 31.6 µM [inhibitor, partial curve]	
COc1ccccc1-c1ccc(/C=C2/C=C(CC(C)C)OC2=O)o1	active: 25.1 µM	
c1ccc(-n2nnnc2Oc2ccc(-c3nnco3)cc2)cc1	inactive	
Cn1c(=O)n(C)c2cc(N3CCOCC3)c(NC(=O)c3c(F)cccc3F)cc21	inactive	
COc1ccc(C(=O)NCC(c2ccc(N(C)C)cc2)N2CCc3ccccc32)cc1 (configuration not stated)	inactive	
Cc1ccnc(NS(=O)(=O)c2ccc(NC(=O)c3cc(-c4ccc(Br)cc4)nc4ccccc34)cc2)n1	active: 79.4 µM	
CCOC(=O)Cc1csc(NC(=O)CSC2=NCCS2)n1	inconclusive: 3.55 µM [inhibitor, full curve, poor fit]	
Cc1ccc(OCC(=O)Nc2ccc3c(c2)C(=O)NC3=O)cc1	active: 31.6 µM	
Cc1nnc(Nc2ccc(S(N)(=O)=O)cc2)c2ccccc12	inconclusive: 89.1 µM [inhibitor, single point]	
COc1ccc(OC)c(NC(=O)CC2SC(=NCc3ccccc3)NC2=O)c1 (configuration not stated)	inconclusive: 89.1 µM [inhibitor, single point]	
CC1CCCCN1Cc1nc2ccccc2c(=O)[nH]1 (configuration not stated)	inconclusive: 2.82 µM [inhibitor, full curve]	
O=C(CN1C=NS(=O)(=O)c2ccc(C(F)(F)F)cc21)Nc1cccc(C(F)(F)F)c1	inconclusive: 25.1 µM [inhibitor, full curve, poor fit]	
COc1ccc(Nc2c3c(nc4ccc(NC(=O)/C=C/c5cccc(OC)c5OC)cc24)CCCC3)cc1OC	inconclusive: 10 µM [inhibitor, partial curve, poor fit]	
CC(NC(=O)COC(=O)/C(=C/c1cccs1)c1cccs1)c1ccccc1 (configuration not stated)	inconclusive: 10 µM [inhibitor, full curve]	
O=S(=O)(c1ccc(Cl)cc1)c1nc(-c2ccccc2)oc1N1CCN(c2ccccc2)CC1	inactive	
CCOc1ccccc1Nc1nnc(-c2cc3cc(OC)ccc3oc2=O)s1	inconclusive: 5.01 µM [inhibitor, full curve]	
CCc1ccc(Oc2c(C(F)(F)F)oc3c(CN4CCC(C)CC4)c(O)ccc3c2=O)cc1	inactive	
CCC(=O)c1ccccc1OCCN1CCN(Cc2ccccc2)CC1	inconclusive: 50.1 µM [inhibitor, single point]	
CCCCn1c(-c2csc(CC)c2)n[nH]c1=S	inactive	

Structure (SMILES)	Potency	activity change, negative = inhibition
Cc1ccc(NC(=O)CCN2CCN(CCO)CC2)cc1C	inactive	
CCOC(=O)C1(CCOc2ccccc2)CCN(Cc2ccc(C#CCCO)cc2)CC1	inconclusive: 39.8 µM [inhibitor, single point]	
CCOC(=O)c1[nH]c(C)c(C(=O)N2CCN(C(=O)c3ccco3)CC2)c1C	inconclusive: 39.8 µM [inhibitor, single point]	
Cc1ccc(-n2nnnc2SCC(=O)N2CC(=O)Nc3ccccc32)cc1	inconclusive: 0.251 µM [inhibitor, full curve, poor fit]	
CCOC(=O)c1csc(-c2sccc2Br)n1	inconclusive: 4.47 µM [inhibitor, single point]	
CCn1c(-c2cccc(Cl)c2)n[nH]c1=S	inconclusive: 28.2 µM [inhibitor, partial curve]	
CC1CCCCC1NC(=O)c1ccc(CSc2nc3ccncc3[nH]2)cc1 (configuration not stated)	inconclusive: 39.8 µM [inhibitor, single point]	
COc1cc(OC)cc(C(=O)N[C@H](C(=O)OCC(=O)Nc2sccc2C#N)C(C)C)c1	inconclusive: 3.98 µM [inhibitor, full curve, poor fit]	
COc1ccc(CC(=O)n2[nH]c(=O)c3ccccc3c2=O)cc1OC	inactive	
Cc1nnc(-c2ccccc2)nc1N(C)C	inactive	
Cc1ccc(S(=O)(=O)c2nc(-c3ccccc3)oc2SCC(=O)NCC2CCCO2)cc1 (configuration not stated)	inconclusive: 56.2 µM [inhibitor, single point]	
COc1ccccc1C(=O)N1CCC(c2noc(-c3ccc(S(=O)(=O)N4CCCC4)cc3)n2)CC1	inactive	
Cn1ccnc1SCC(=O)c1ccc(Br)cc1	inconclusive: 39.8 µM [inhibitor, single point]	
CN(Cc1cnccn1)C(=O)C1CCC(=O)N(CCc2ccc(Cl)cc2)C1 (configuration not stated)	inactive	
Cc1cc(/C=N/NC(N)=O)c(C)n1-c1ccc(F)cc1	inconclusive: 89.1 µM [inhibitor, single point]	
O=C1OCCC1Sc1nc2cc(Cl)ccc2n1Cc1ccccc1 (configuration not stated)	inconclusive: 17.8 µM [inhibitor, full curve, poor fit]	
Cc1nc2ccc(S(=O)(=O)N(CC(=O)Nc3cccc(F)c3)Cc3ccccc3)cc2s1	inconclusive: 56.2 µM [inhibitor, partial curve, poor fit]	
CC(C)CCn1c(=O)c2sccc2n2c(CCCC(=O)NCCc3ccccc3)nnc12	inactive	
COc1cc(SC)ccc1C(=O)Nc1ccc2c(c1)CCC2	inactive	
O=C1CC(c2ccccc2)c2c(n3ncnc3[nH]c2=O)N1 (configuration not stated)	inactive	
Cc1ccnc2nc(C(=O)Nc3nc(-c4ccccn4)cs3)nn12	active: 11.2 µM	
Cc1c2ccccc2nc2c(F)c(NCCO)c(F)c(F)c12	inconclusive: 50.1 µM [inhibitor, partial curve]	
O=[N+]([O-])c1ccc(-c2csc3[n+]2CCS3)cc1	inconclusive: 0.1 µM [inhibitor, full curve, poor fit]	
c1ccc(CN2CCN(C3=Nc4cccc5cccc3c45)CC2)cc1	inconclusive: 0.316 µM [inhibitor, full curve, poor fit]	

Part of the list above, bar-delimited:
Structure (SMILES) | Potency | activity change, negative = inhibition
COc1cc2c(cc1OC)C(C)N(C(=O)Nc1ccccc1)CC2 (configuration not stated) | inconclusive: 2.24 µM [inhibitor, full curve] | 
CCn1c(=O)cc(OCC(=O)N2CCN(c3ccccc3OC)CC2)c2ccccc21 | inactive | 
Cn1c(CNC(=O)CSc2nc(-c3cccc(Cl)c3)nc3cc(=O)[nH]n23)nc2ccccc21 | inconclusive: 31.6 µM [inhibitor, partial curve] | 
Cn1c(=O)n(C)c2cc(N3CCOCC3)c(NC(=O)c3c(F)cccc3F)cc21 | inactive | 
Cc1ccc(OCC(=O)Nc2ccc3c(c2)C(=O)NC3=O)cc1 | active: 31.6 µM | 
O=S(=O)(c1ccc(Cl)cc1)c1nc(-c2ccccc2)oc1N1CCN(c2ccccc2)CC1 | inactive | 
CCOC(=O)c1[nH]c(C)c(C(=O)N2CCN(C(=O)c3ccco3)CC2)c1C | inconclusive: 39.8 µM [inhibitor, single point] | 
CC1CCCCC1NC(=O)c1ccc(CSc2nc3ccncc3[nH]2)cc1 (configuration not stated) | inconclusive: 39.8 µM [inhibitor, single point] | 
COc1ccc(CC(=O)n2[nH]c(=O)c3ccccc3c2=O)cc1OC | inactive | 
Cc1nnc(-c2ccccc2)nc1N(C)C | inactive | 
Cc1ccc(S(=O)(=O)c2nc(-c3ccccc3)oc2SCC(=O)NCC2CCCO2)cc1 (configuration not stated) | inconclusive: 56.2 µM [inhibitor, single point] | 
COc1ccccc1C(=O)N1CCC(c2noc(-c3ccc(S(=O)(=O)N4CCCC4)cc3)n2)CC1 | inactive | 
Cn1ccnc1SCC(=O)c1ccc(Br)cc1 | inconclusive: 39.8 µM [inhibitor, single point] | 
CN(Cc1cnccn1)C(=O)C1CCC(=O)N(CCc2ccc(Cl)cc2)C1 (configuration not stated) | inactive | 
Cc1cc(/C=N/NC(N)=O)c(C)n1-c1ccc(F)cc1 | inconclusive: 89.1 µM [inhibitor, single point] | 
O=C1OCCC1Sc1nc2cc(Cl)ccc2n1Cc1ccccc1 (configuration not stated) | inconclusive: 17.8 µM [inhibitor, full curve, poor fit] | 
CC(C)CCn1c(=O)c2sccc2n2c(CCCC(=O)NCCc3ccccc3)nnc12 | inactive | 
Cc1ccnc2nc(C(=O)Nc3nc(-c4ccccn4)cs3)nn12 | active: 11.2 µM | 
Cc1c2ccccc2nc2c(F)c(NCCO)c(F)c(F)c12 | inconclusive: 50.1 µM [inhibitor, partial curve] | 
O=[N+]([O-])c1ccc(-c2csc3[n+]2CCS3)cc1 | inconclusive: 0.1 µM [inhibitor, full curve, poor fit] | 

(listing goes on)

Structure (SMILES)	Potency	activity change, negative = inhibition
N#Cc1ccsc1NC(=O)CSc1ncn[nH]1	inactive	
O=C(Cn1ncc2c3ccccc3n(Cc3cccc(Cl)c3)c2c1=O)NCc1cccs1	active: 25.1 µM	
Cc1ccc(SCC(=O)Nc2nnc(C(C)(C)C)s2)cc1	inconclusive: 89.1 µM [inhibitor, single point]	
C/C(=N\NC(=O)c1cc2ccccc2cc1O)c1ccc2c(c1)OCO2	inconclusive: 56.2 µM [inhibitor, partial curve, poor fit]	
C(=C\c1ccccc1)/C=N/Nc1ccc2nncn2n1	inactive	
Cc1ccc(NC(=O)c2cc3ccccc3cc2O)cc1	inconclusive: 2 µM [inhibitor, partial curve, poor fit]	
O=C(Nc1ccc2c(c1)OCO2)N1CCN(c2ncccn2)CC1	inconclusive: 1.12 µM [inhibitor, full curve]	
Cc1ccc2nc(CSc3nc(C)ccc3C#N)[nH]c2c1	inconclusive: 11.2 µM [inhibitor, full curve, poor fit]	
O=C(CCc1ccccc1)N=C1SC2CS(=O)(=O)CC2N1c1ccc(F)cc1 (configuration not stated)		inconclusive: -35.2% [inhibitor]
CCOc1ccc(C)cc1S(=O)(=O)N1CCCCC1	inconclusive: 89.1 µM [inhibitor, single point]	
CC(CNC(=O)c1ccc(CSc2nc3ccncc3n2Cc2ccccc2)cc1)c1ccccc1 (configuration not stated)	inactive	
O=C(CN1c2cccc3cccc(c23)S1(=O)=O)NCc1ccc2c(c1)OCO2	inconclusive: 35.5 µM [inhibitor, single point]	
COc1ccc(-n2c(SCC(=O)Nc3sc4c(c3C#N)CCCC4)nnc2-c2ccc(O)cc2)cc1	inconclusive: 1.12 µM [inhibitor, full curve]	
COc1ccc(Oc2ccc(/C=C/C(=O)c3cccc(OC)c3)cc2[N+](=O)[O-])cc1	inactive	
CN=Cc1nc(-c2ccccc2)oc1O	inactive	
CC(=O)c1ccc(NC(=O)c2ccc(-c3ccc(Cl)cc3)o2)cc1		inconclusive: -74.8% [inhibitor]
CCCC12CN3CC(CCC)(CN(C1)C3c1ccccc1)C2=O (configuration not stated)	inactive	
Nc1cc2c(cc1[N+](=O)[O-])OCO2	active: 28.2 µM	
Cc1ccc(NC(=O)c2cc(C)n(-c3cccc(C)c3)c2C)cc1	inconclusive: 89.1 µM [inhibitor, single point]	
CCOc1ccc(C(=O)COC(=O)c2ccc(-n3cnnn3)cc2)cc1	inconclusive: 100 µM [inhibitor, single point]	
Cc1ccc(-c2ccc(C(=O)Nc3ccccc3)o2)c2ccccc12	inactive	
O=C(OC1CCOC1=O)c1cc(-c2ccccc2)nc2ccccc12 (configuration not stated)	inconclusive: 8.91 µM [inhibitor, partial curve, poor fit]	
O=C(NCc1cccnc1)/C(=C/c1ccc(-c2cccc(Cl)c2)o1)S(=O)(=O)c1ccccc1	inconclusive: 22.4 µM [inhibitor, single point]	
CC(C)(C)CC(C)(C)N1CNC(=S)NC1	inconclusive: 100 µM [inhibitor, single point]	
